Here are results for one molecule from article PMC7279496.

No constants are given. Whether binding was seen depends on the method and setting. Some binding calls cover weakened binding; strength is not graded here. Sequences can lack the tags named with a protein.

In experiment [1] the target is T1, Pet111p fused with the DNA binding domain of GAL4 (pAS2ΔΔ-PET111) (S. cerevisiae) (UniProt P08468).
T1 sequence: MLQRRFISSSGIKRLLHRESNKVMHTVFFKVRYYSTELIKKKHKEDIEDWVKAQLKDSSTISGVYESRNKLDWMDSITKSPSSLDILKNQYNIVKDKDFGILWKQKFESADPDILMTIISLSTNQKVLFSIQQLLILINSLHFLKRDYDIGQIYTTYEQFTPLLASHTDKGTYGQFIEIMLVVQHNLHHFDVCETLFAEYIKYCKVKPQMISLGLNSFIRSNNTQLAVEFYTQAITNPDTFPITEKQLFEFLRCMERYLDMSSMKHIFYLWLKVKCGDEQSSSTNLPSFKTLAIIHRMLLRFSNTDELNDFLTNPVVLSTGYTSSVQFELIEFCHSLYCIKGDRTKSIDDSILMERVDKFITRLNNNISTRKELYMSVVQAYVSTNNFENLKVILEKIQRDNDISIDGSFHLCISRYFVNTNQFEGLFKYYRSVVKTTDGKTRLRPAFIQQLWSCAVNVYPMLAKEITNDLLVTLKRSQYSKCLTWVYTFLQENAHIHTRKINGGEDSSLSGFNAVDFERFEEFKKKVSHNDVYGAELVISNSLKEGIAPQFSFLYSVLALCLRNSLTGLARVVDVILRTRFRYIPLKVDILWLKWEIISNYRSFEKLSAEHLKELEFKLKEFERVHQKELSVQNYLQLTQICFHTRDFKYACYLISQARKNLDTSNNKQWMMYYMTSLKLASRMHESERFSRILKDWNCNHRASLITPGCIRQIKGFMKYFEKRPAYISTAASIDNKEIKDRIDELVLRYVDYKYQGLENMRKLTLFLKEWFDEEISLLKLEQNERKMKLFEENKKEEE
In words: two-hybrid; Y190 yeast strain, Gal4 AD fusion (pACT2) and Gal4 DNA-binding domain fusion (pAS2ΔΔ); HIS3 reporter, growth on SC-His medium with 2 mM 3-AT, ten-fold dilutions.

For experiment [2], the target named is T2, Aep1p fused with the DNA binding domain of GAL4 (pAS2ΔΔ-AEP1) (S. cerevisiae) (UniProt P32493).
T2 sequence: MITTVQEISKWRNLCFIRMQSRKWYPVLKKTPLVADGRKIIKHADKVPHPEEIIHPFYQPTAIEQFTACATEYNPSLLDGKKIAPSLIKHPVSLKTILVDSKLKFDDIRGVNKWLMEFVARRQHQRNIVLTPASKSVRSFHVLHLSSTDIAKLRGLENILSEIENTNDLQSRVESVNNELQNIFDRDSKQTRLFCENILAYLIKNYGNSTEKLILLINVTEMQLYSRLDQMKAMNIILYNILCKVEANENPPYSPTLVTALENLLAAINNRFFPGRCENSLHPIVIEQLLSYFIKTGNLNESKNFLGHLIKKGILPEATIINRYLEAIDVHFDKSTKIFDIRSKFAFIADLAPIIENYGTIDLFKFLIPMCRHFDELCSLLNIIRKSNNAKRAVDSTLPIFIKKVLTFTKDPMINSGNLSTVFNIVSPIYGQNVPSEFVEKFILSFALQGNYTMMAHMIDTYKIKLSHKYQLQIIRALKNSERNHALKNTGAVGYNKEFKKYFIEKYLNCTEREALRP
The experiment is described as above.

B1: Aim23p fused with the activation domain of the GAL4 transcription factor (pACT2-AIM23) (protein, UniProt P47015 1-356)
chain: MLKVPLSDVLSQKMLFLKSFRYFHCTKYFSRDNASSTTDIFRNAMKRKRELANLKEQSHGNVARNAAFPKEYIKRPKQVPRNATNRKKILITWSTGTDRAKEAANSVVSEIFKKNHKGNIKVVDPTTHRIEASNIRYFAKGIDLDKVGLSIVNVEQIDNENQIPLVKIVESRVALKKYSDFLAKKKEKELMELGVLNKSYKNLVTDKKEDNLKHIKISWQIESDDLKRQKAHEIVSLLKKGNKVTLYLDDKNNINSNNWLENFEELDRSQKGEPPRLPESVFQKRAAVLETLKEIVSEYANDPVLLGNMNSKMIMKLIPKDVKPQNNDKRALKELRKKERQEKLQKRIQRKKMNEM
Turning to B1, the binding entry in experiment [1] is “binds”; in experiment [2], “no binding”.
